In this data set the test system is Coagulation factor IX/IXa (Sus scrofa). As to the kind of experiment: inhibition of the protein. Conditions: 2'-F on all C and U, 2'-OH A and G, 3' idT, 5' cholesterol, in vivo piglets 0.5 mg/kg, ACT and APTT, less potent than PEG-Apt39, protein in an extract, protein details: endogenous factor in piglet blood, variant of AptA.

Chains of the proteins cited; added tags and fusions are not shown. A line that says so, or that is headed by a name, gives the form on record, which may keep a tag or linker.
Coagulation factor IX/IXa (Sus scrofa), one chain, as listed by the source, chain 1 of 2: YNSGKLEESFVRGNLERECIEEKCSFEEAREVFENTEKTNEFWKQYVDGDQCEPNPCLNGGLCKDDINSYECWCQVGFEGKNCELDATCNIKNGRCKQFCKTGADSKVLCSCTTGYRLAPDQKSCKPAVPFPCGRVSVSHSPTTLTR
Coagulation factor IX/IXa (Sus scrofa), one chain, as listed by the source, chain 2 of 2: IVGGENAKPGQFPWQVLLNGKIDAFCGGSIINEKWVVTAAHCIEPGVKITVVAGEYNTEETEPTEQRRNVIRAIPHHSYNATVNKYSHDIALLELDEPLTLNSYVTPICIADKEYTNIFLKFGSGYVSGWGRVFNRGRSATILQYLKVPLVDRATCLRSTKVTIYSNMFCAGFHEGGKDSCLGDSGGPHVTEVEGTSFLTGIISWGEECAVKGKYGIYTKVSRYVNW

“AUGGGGACUAUACCGCGUAAUGCUGCCUCCCCAU [CH-AptA]”: the “functional effect of the aptamer” value was “active”.

Values taken from patent US20060040881.
